# In PubChem BioAssay AID248 (DTP/NCI, 2004):
# The list shows only some results of the screen, not a fair sample: it gathers tests that were run many times, whatever their T/C, doses with no T/C, and many T/C values between a quarter and a half above the control. Further doses and runs are listed elsewhere. T/C is the treated group as % of the vehicle group. Some entries give survivors of the animals treated and no T/C: the source holds a T/C of zero for them, seemingly a mark for toxic or unscored doses. Some survivor counts are full or nearly so, which does not show that the dose was tolerated: the source hardly ever lists a survival T/C far under the control, and the zero likely stands for such cases as well. Counts of survivors are from the toxicity check (mostly the fifth day) where no day follows; animals may have died later. Schedule codes are those of the source, read here as Q, the interval in days (D) or hours (H), X, the number of doses. Some doses were run more than once; the values are given in rising order. Some schedule codes hold Z or #, which are not explained here. For survival time, this PubChem deposit counts one and a half times the control or more as active, and values a quarter to a half above the control carry no call in these data; other NCI protocols may use other cut-offs. Marks such as (2×) stand for listed records that agree.
# Tested on: L1210 leukemia ip in BDF1 mice, survival T/C
# Assay: NCI In Vivo Anticancer Drug Screen. Data for tumor model L1210 Leukemia (intraperitoneal) in B6D2F1 (BDF1) mice
# Details: T/C endpoint: mean survival time, higher T/C = longer survival
# [1] = dose: 100.0 mg/kg/injection, schedule: Q01DX009 (ip), vehicle: gum acacia
# [2] = dose: 200.0 mg/kg/injection, schedule: Q01DX009 (ip), vehicle: gum acacia
# [3] = dose: 400.0 mg/kg/injection, schedule: Q01DX009 (ip), vehicle: gum acacia
# [4] = dose: 200.0 mg/kg/injection, schedule: Q04DX003 (ip), vehicle: saline
# [5] = dose: 400.0 mg/kg/injection, schedule: Q04DX003 (ip), vehicle: saline
# [6] = dose: 400.0 mg/kg/injection, schedule: Q01DX001 (ip), vehicle: saline
# [7] = dose: 200.0 mg/kg/injection, schedule: Q01DX009 (ip), vehicle: saline with Tween-80
# [8] = dose: 400.0 mg/kg/injection, schedule: Q01DX009 (ip), vehicle: saline with Tween-80
# [9] = dose: 200.0 mg/kg/injection, schedule: Q01DX009 (ip), vehicle: Klucel (hydroxypropylcellulose) (HPC)
compound,measurement,setting,value
CC(C)(C)c1cc(/C=N/NC(=O)CNC(=O)Nc2cccc(C(F)(F)F)c2)cc(C(C)(C)C)c1O,T/C,[1],86 and 93 % of control
same,survivor count,[1],3 of 3 and 6 of 6
same,T/C,[2],90 % of control (2×)
same,survivor count,[2],3 of 3 and 6 of 6
same,survivor count,"dose: 200.0 mg/kg/injection, schedule: Q04DX002 (ip), vehicle: gum acacia",3 of 3
same,T/C,[3],90 % of control (2×)
same,survivor count,[3],3 of 3 and 6 of 6
CC[N+](CC)(CCOC(=O)C1C2CC3OC(=O)C1C3C2)Cc1ccccc1 (stereo unspecified),survivor count,[4],0 of 3
same,survivor count,[5],0 of 3
O=c1cc(CBr)c2ccccc2[nH]1,survivor count,"dose: 25.0 mg/kg/injection, schedule: Q01DX009 (ip), vehicle: saline with Tween-80",4 of 6
same,survivor count,"dose: 100.0 mg/kg/injection, schedule: Q01DX001 (ip), vehicle: saline",2 of 6
same,survivor count,"dose: 200.0 mg/kg/injection, schedule: Q01DX001 (ip), vehicle: saline",0 of 6
same,survivor count,[6],0 of 6
Cc1cccc(OC(=O)Nc2ccc(C(=O)O)c(O)c2)c1,survivor count,"dose: 400.0 mg/kg/injection, schedule: Q01DX001 (ip), vehicle: gum acacia",0 of 3 and 0 of 6
same,survivor count,[3],0 of 3 and 0 of 6
same,survivor count,"dose: 400.0 mg/kg/injection, schedule: Q04DX002 (ip), vehicle: gum acacia",2 of 6 and 3 of 3
C1[CH2][Hg][CH2]CO1,survivor count,"dose: 400.0 mg/kg/injection, schedule: Q04DX002 (ip), vehicle: saline",2 of 3
O=C1C=CC2(CCC23C=CC(=O)O3)O1 (stereo unspecified),survivor count,"dose: 65.0 mg/kg/injection, schedule: Q01DX Z (ip), vehicle: saline",4 of 7
same,survivor count,"dose: 100.0 mg/kg/injection, schedule: Q01DX Z (ip), vehicle: saline",0 of 7
same,survivor count,"dose: 150.0 mg/kg/injection, schedule: Q01DX Z (ip), vehicle: saline",0 of 7
CC(C)(C)CC(C)(C)N=C=S,survivor count,[7],0 of 6
same,survivor count,[8],0 of 6
[Cl][Ni+2][Cl].[NH-]CCN1CC1,survivor count,"dose: 100.0 mg/kg/injection, schedule: Q04DX003 (ip), vehicle: saline",0 of 6
same,survivor count,[4],1 of 6
same,survivor count,[5],0 of 6
CCCCN=Cc1ccccc1,survivor count,[8],1 of 6
O=C(NC(=S)Nc1ccc(F)cc1)c1ccco1,survivor count,[9],3 of 6
same,survivor count,"dose: 400.0 mg/kg/injection, schedule: Q04DX003 (ip), vehicle: Klucel (hydroxypropylcellulose) (HPC)",0 of 6
O=C(O)Cc1ccccc1Cl,survivor count,[3],3 of 6
Cc1ccc(NC(=O)Nc2cc(S(=O)(=O)O)ccc2Oc2ccccc2Cl)cc1,survivor count,"dose: 400.0 mg/kg/injection, schedule: Q01DX009 (ip), vehicle: saline sonified",0 of 6
Cc1ccc(O)c(N=O)c1.[Co],survivor count,[6],2 of 4
O=C(O)C=C(CBr)CBr,survivor count,"dose: 75.0 mg/kg/injection, schedule: Q01DX001 (ip), vehicle: saline",3 of 6
same,survivor count,"dose: 150.0 mg/kg/injection, schedule: Q01DX001 (ip), vehicle: saline",0 of 6
same,survivor count,"dose: 300.0 mg/kg/injection, schedule: Q01DX001 (ip), vehicle: saline",1 of 6
c1ccc(C2OCCCO2)cc1,survivor count,"dose: 50.0 mg/kg/injection, schedule: Q01DX009 (ip), vehicle: Klucel (hydroxypropylcellulose) (HPC)",4 of 4
same,survivor count,"dose: 100.0 mg/kg/injection, schedule: Q01DX009 (ip), vehicle: Klucel (hydroxypropylcellulose) (HPC)",6 of 6
same,survivor count,[9],6 of 6
CC(C)=CCC/C(C)=C/CNC(=O)/C=C/C(=O)O,survivor count,"dose: 200.0 mg/kg/injection, schedule: Q04DX003 (ip), vehicle: saline with Tween-80",6 of 6
O=C(O)c1ccc(CCCCCCl)cc1,survivor count,[8],3 of 6
Cc1cccnc1N1CCNC1=O,survivor count,[4],1 of 6
same,survivor count,[5],0 of 6
O=C1C=CC(=O)C(SCCC(=O)O)=C1,survivor count,"dose: 200.0 mg/kg/injection, schedule: Q01DX001 (ip), vehicle: carboxymethylcellulose (CMC)",1 of 4
same,survivor count,"dose: 400.0 mg/kg/injection, schedule: Q01DX001 (ip), vehicle: carboxymethylcellulose (CMC)",1 of 4
CS(=O)(=O)Nc1ccccc1-c1nc2ccccc2c(=O)o1,survivor count,"dose: 200.0 mg/kg/injection, schedule: Q04DX002 (ip), vehicle: Klucel (hydroxypropylcellulose) (HPC)",3 of 3
COC1=C(N=[N+]=[N-])C(=O)c2ccccc2C1=O,survivor count,"dose: 25.0 mg/kg/injection, schedule: Q04DX002 (ip), vehicle: saline with Tween-80",0 of 3
same,survivor count,"dose: 100.0 mg/kg/injection, schedule: Q04DX002 (ip), vehicle: saline with Tween-80",0 of 3
same,survivor count,"dose: 200.0 mg/kg/injection, schedule: Q04DX002 (ip), vehicle: saline with Tween-80",0 of 3
same,survivor count,"dose: 400.0 mg/kg/injection, schedule: Q04DX002 (ip), vehicle: saline with Tween-80",0 of 3
CCOc1ccn(CC(=O)c2ccc([N+](=O)[O-])o2)c(=O)n1,survivor count,[7],5 of 6
same,survivor count,[8],0 of 6
same,survivor count,"dose: 400.0 mg/kg/injection, schedule: Q04DX003 (ip), vehicle: saline with Tween-80",1 of 6
